In PubChem BioAssay AID248 (DTP/NCI, 2004):
The list shows only some results of the screen, not a fair sample: it gathers some chemical classes. Other doses and runs of a compound may be missing. T/C gives the treated animals as a percentage of the vehicle group. Where survival is the endpoint, the PubChem record calls one and a half times the control and up active, and a quarter to a half above the control has no call in these data; cut-offs in other NCI protocols can differ. Some entries show no survivor count and are marked so; the dose need not have been tolerated. Schedule codes are those of the source, taken here to give the interval after Q, in days (D) or hours (H), and the number of doses after X. Brackets with × give the number of equal values in this list. Some entries were tested several times; the values are given in rising order. Some schedules carry Z or #; the key to these is not given.

System: L1210 leukemia ip in BDF1 mice, survival T/C
Assay: NCI In Vivo Anticancer Drug Screen. Data for tumor model L1210 Leukemia (intraperitoneal) in B6D2F1 (BDF1) mice
Settings: higher T/C = longer survival

In the case of `CN(CCCl)CCCl`, the T/C (T/C endpoint: mean survival time, dose: 120.0 micrograms/kg/injection, schedule: Q01DX009 (ip), vehicle: water) was 111 [survivor count not shown] and 124 % of control [survivor count not shown], the T/C (T/C endpoint: mean survival time, dose: 120.0 micrograms/kg/injection, schedule: Q01DX Z (ip), vehicle: saline) was 147 % of control [survivor count not shown] and the T/C (T/C endpoint: mean survival time, dose: 120.0 micrograms/kg/injection, schedule: Q#A X Z (ip), vehicle: saline) was 149 % of control [survivor count not shown]. The T/C (T/C endpoint: mean survival time, dose: 125.0 micrograms/kg/injection, schedule: Q01DX001 (ip), vehicle: saline) was 129 [survivor count not shown], 130 [survivor count not shown], 137 [survivor count not shown] (4×), 142 % of control [survivor count not shown] (2×), the T/C (T/C endpoint: mean survival time, dose: 143.0 micrograms/kg/injection, schedule: Q01DX Z (ip), vehicle: carboxymethylcellulose (CMC)) was 161 % of control [survivor count not shown] and the T/C (T/C endpoint: mean survival time, dose: 180.0 micrograms/kg/injection, schedule: Q01DX Z (ip), vehicle: carboxymethylcellulose (CMC)) was 142 % of control [survivor count not shown]. For the same molecule, the T/C (T/C endpoint: mean survival time, dose: 190.0 micrograms/kg/injection, schedule: Q03DX Z (ip), vehicle: saline) was 151 % of control [survivor count not shown], the T/C (T/C endpoint: mean survival time, dose: 200.0 micrograms/kg/injection, schedule: Q01DX Z (ip), vehicle: carboxymethylcellulose (CMC)) was 150 % of control [survivor count not shown] and the T/C (T/C endpoint: mean survival time, dose: 220.0 micrograms/kg/injection, schedule: Q01DX001 (ip), vehicle: saline) was 138 % of control [survivor count not shown]. The T/C (T/C endpoint: mean survival time, dose: 225.0 micrograms/kg/injection, schedule: Q01DX001 (ip), vehicle: saline) was 146 % of control [survivor count not shown], the T/C (T/C endpoint: mean survival time, dose: 225.0 micrograms/kg/injection, schedule: Q07DX Z (ip), vehicle: saline) was 146 % of control [survivor count not shown] and the T/C (T/C endpoint: mean survival time, dose: 230.0 micrograms/kg/injection, schedule: Q01DX009 (ip), vehicle: water) was 151 [survivor count not shown] and 156 % of control [survivor count not shown]. The T/C (T/C endpoint: mean survival time, dose: 238.0 micrograms/kg/injection, schedule: Q01DX Z (ip), vehicle: carboxymethylcellulose (CMC)) was 146 % of control [survivor count not shown], the T/C (T/C endpoint: mean survival time, dose: 248.0 micrograms/kg/injection, schedule: Q01DX017 (ip), vehicle: saline) was 152 % of control [survivor count not shown] and the T/C (T/C endpoint: mean survival time, dose: 248.0 micrograms/kg/injection, schedule: Q02DX009 (ip), vehicle: saline) was 154 % of control [survivor count not shown]. The T/C (T/C endpoint: mean survival time, dose: 250.0 micrograms/kg/injection, schedule: Q01DX001 (ip), vehicle: saline) was 135 [survivor count not shown] (2×), 139 [survivor count not shown] (2×), 140 [survivor count not shown], 142 [survivor count not shown], 144 [survivor count not shown], 145 % of control [survivor count not shown], the T/C (T/C endpoint: mean survival time, dose: 250.0 micrograms/kg/injection, schedule: Q01DX Z (ip), vehicle: saline) was 149 % of control [survivor count not shown] and the T/C (T/C endpoint: mean survival time, dose: 250.0 micrograms/kg/injection, schedule: Q#A X Z (ip), vehicle: saline) was 169 % of control [survivor count not shown]. The T/C (T/C endpoint: mean survival time, dose: 300.0 micrograms/kg/injection, schedule: Q01DX Z (ip), vehicle: carboxymethylcellulose (CMC)) was 146 % of control [survivor count not shown], the T/C (T/C endpoint: mean survival time, dose: 380.0 micrograms/kg/injection, schedule: Q03DX Z (ip), vehicle: saline) was 149 % of control [survivor count not shown] and the T/C (T/C endpoint: mean survival time, dose: 450.0 micrograms/kg/injection, schedule: Q01DX001 (ip), vehicle: saline) was 157 % of control [survivor count not shown]. The T/C (T/C endpoint: mean survival time, dose: 450.0 micrograms/kg/injection, schedule: Q01DX009 (ip), vehicle: water) was 101 [survivor count not shown] and 134 % of control [survivor count not shown], the T/C (T/C endpoint: mean survival time, dose: 450.0 micrograms/kg/injection, schedule: Q07DX Z (ip), vehicle: saline) was 155 % of control [survivor count not shown] and the T/C (T/C endpoint: mean survival time, dose: 500.0 micrograms/kg/injection, schedule: Q01DX001 (ip), vehicle: saline) was 137 [survivor count not shown], 140 [survivor count not shown], 142 [survivor count not shown], 144 [survivor count not shown], 148 [survivor count not shown] (2×), 151 [survivor count not shown], 160 % of control [survivor count not shown]. The T/C (T/C endpoint: mean survival time, dose: 500.0 micrograms/kg/injection, schedule: Q01DX Z (ip), vehicle: carboxymethylcellulose (CMC)) was 120 % of control [survivor count not shown], the T/C (T/C endpoint: mean survival time, dose: 750.0 micrograms/kg/injection, schedule: Q03DX Z (ip), vehicle: saline) was 160 % of control [survivor count not shown] and the T/C (T/C endpoint: mean survival time, dose: 900.0 micrograms/kg/injection, schedule: Q01DX001 (ip), vehicle: saline) was 152 % of control [survivor count not shown]. The T/C (T/C endpoint: mean survival time, dose: 900.0 micrograms/kg/injection, schedule: Q07DX Z (ip), vehicle: saline) was 158 % of control [survivor count not shown], the T/C (T/C endpoint: mean survival time, dose: 1000.0 micrograms/kg/injection, schedule: Q01DX001 (ip), vehicle: saline) was 140 [survivor count not shown], 144 [survivor count not shown], 146 [survivor count not shown], 156 [survivor count not shown], 157 [survivor count not shown], 158 [survivor count not shown], 173 [survivor count not shown], 175 % of control [survivor count not shown] and the T/C (T/C endpoint: mean survival time, dose: 1000.0 micrograms/kg/injection, schedule: Q01DX017 (ip), vehicle: saline) was 158 % of control [survivor count not shown]. The T/C (T/C endpoint: mean survival time, dose: 1000.0 micrograms/kg/injection, schedule: Q02DX009 (ip), vehicle: saline) was 163 % of control [survivor count not shown], the T/C (T/C endpoint: mean survival time, dose: 1800.0 micrograms/kg/injection, schedule: Q01DX001 (ip), vehicle: saline) was 168 % of control [survivor count not shown] and the T/C (T/C endpoint: mean survival time, dose: 1800.0 micrograms/kg/injection, schedule: Q07DX Z (ip), vehicle: saline) was 192 % of control [survivor count not shown]. For the same molecule, the T/C (T/C endpoint: median survival time, dose: 0.06 mg/kg/injection, schedule: Q01DX017 (ip), vehicle: saline) was 111 [survivor count not shown], 133 [survivor count not shown], 144 % of control [survivor count not shown], the T/C (T/C endpoint: median survival time, dose: 0.12 mg/kg/injection, schedule: Q01DX009 (ip), vehicle: saline) was 130 % of control [survivor count not shown] (2×) and the T/C (T/C endpoint: median survival time, dose: 0.12 mg/kg/injection, schedule: Q01DX017 (ip), vehicle: saline) was 122 [survivor count not shown] and 133 % of control [survivor count not shown]. The T/C (T/C endpoint: median survival time, dose: 0.13 mg/kg/injection, schedule: Q01DX017 (ip), vehicle: saline) was 124 [survivor count not shown] and 133 % of control [survivor count not shown], the T/C (T/C endpoint: median survival time, dose: 0.25 mg/kg/injection, schedule: Q01DX009 (ip), vehicle: saline) was 139 [survivor count not shown] and 145 % of control [survivor count not shown] and the T/C (T/C endpoint: median survival time, dose: 0.25 mg/kg/injection, schedule: Q01DX017 (ip), vehicle: saline) was 133 [survivor count not shown] (2×), 144 [survivor count not shown], 150 % of control [survivor count not shown]. The T/C (T/C endpoint: median survival time, dose: 0.5 mg/kg/injection, schedule: Q01DX009 (ip), vehicle: saline) was 121 [survivor count not shown] and 140 % of control [survivor count not shown], the T/C (T/C endpoint: median survival time, dose: 0.5 mg/kg/injection, schedule: Q01DX017 (ip), vehicle: saline) was 88 [survivor count not shown], 133 [survivor count not shown], 136 [survivor count not shown], 166 % of control [survivor count not shown] and the T/C (T/C endpoint: median survival time, dose: 1.0 mg/kg/injection, schedule: Q01DX009 (ip), vehicle: saline) was 100 % of control [survivor count not shown] (2×). The T/C (T/C endpoint: median survival time, dose: 1.0 mg/kg/injection, schedule: Q01DX017 (ip), vehicle: saline) was 103 [survivor count not shown] and 133 % of control [survivor count not shown].
